# Laboratory results reported in PubChem BioAssay AID588856 (National Center for Advancing Translational Sciences (NCATS), 2011).
# Most of the hits are listed elsewhere, so they are rarer here than in the full data. The source made the active and inactive calls. Calls follow the shape of the dose curve; as a rule, active = well fitted cell-killing curve with a large enough effect; inactive = no such curve, though single readings can be large or run the other way.
# Assay: qHTS for Inhibitors of TGF-b: Cytotox Counterscreen
# Settings: HepG2 CAGA-GFP viability, ATP luminescence, 18 h; at 46.1 µM (top of the series)
# Excerpt: TGF-b is a main component in the TGF-b signaling pathway which plays diverse roles in cellular and development pathways. TGF-b is mediated by transcription factors called "Smads". Although the Smad-dependent pathway is the primary canonical TGF-b signaling mode, TGF-b1 can also activate alternative signaling pathways, including those involving MAPK (ERK, JNK and p38). This interaction may mediate or enhance Smad-dependent responses, or can exert Smad-independent effects. The complexity of this signaling cascade allows the TGF-b superfamily to perform unique, overlapping or redundant functions. […] We aim to identify Smad3-small molecule antagonists using a quantitative high throughput screening (qHTS) approach. […]
# Suspensions of trypsinized HEPG2 CAGA-GFP cells were dispensed into white, tissue culture-treated, solid 1536-well plates at 5uL/well (1000 cells/well final concentration) in DMEM medium supplemented with 1% FBS. […] Two uL of CellTiter Glo (Promega), a luminescence-based viability reagent, was dispensed, followed by a 10 minute room temperature incubation. The plates were then measured on a PerkinElmer ViewLux plate reader for luminescence (clear filter) using a 5 second exposure. The %Activity was determined from the corrected luminescence values. […]
# Concentration-response curves were fitted to the signals arising from the resulting luminescence. […]
row,SMILES,"activity change, negative = cytotoxicity"
1,COc1c(O)cc2c(c1OC)-c1ccc(OC)c(=O)cc1C(NC(C)=O)CC2 (stereo unspecified),inactive: -28.1%
